Source: paper PMC10303846, “In vitro antiplasmodial activity and toxicological profile of extracts, fractions and chemical constituents of leaves and stem bark from Dacryodes edulis (Burseraceae)” (BMC Complementary Medicine and Therapies, 2023)

Tested on: RAW 264.7 cells
Assay: Resazurin-based in vitro cytotoxicity assay
Assay type: cell-based
Settings: CC50 Raw cells / IC50 PfDd2
Description: The cytotoxicity profile of extracts, fractions and isolated compounds was assessed using the resazurin-based assay essentially as previously described against RAW 264.7 cells duly cultivated in complete Dulbecco′s Modified Eagle′s Medium (DMEM) that contain 13.5 g/L of DMEM (Sigma Aldrich), 10% fetal bovine serum (Sigma Aldrich), 0.2% sodium bicarbonate (w/v) (Sigma Aldrich) and 50 μg/mL of gentamicin (Sigma Aldrich). Globally, macrophages (Raw cells) were seeded into 96-well cell-culture flat-bottomed plates at a density of 10^4 cells in 100 μL of complete medium/well and placed in incubation for 24 h at 37℃, and 5% CO2 allowing cell adhesion. Following cell adhesion, ten microliters of each serially diluted test sample solution was added to assay plates and left in incubation for 48 h under the same experimental conditions. Growth control (1% DMSO-100% growth) and positive control wells (podophyllotoxin at 20 μM) were included in the experimental plates. Cell proliferation was checked by adding 10 μL of a stock solution of resazurin (0.15 mg/mL in sterile PBS) to each well followed by an additional incubation of 4 h in the same culture conditions. Fluorescence was then read using Tecan Infinite M200 fluorescence multiwell plate reader (Tecan) at an excitation/emission of 530/590 nm. […]

Row | Compound | SI PfDd2
1 | C/C(=C/CCC(C)C1CCC2(C)C3=CCC4C(C)(C)C(=O)CCC4(C)C3CCC12C)C(=O)O (centres unmarked) [compound 13, 3-oxo-lanosta-7,24-Z-dien-26-oid acid] | > 7
2 | O=C(O)c1ccc(O)c(O)c1 [compound 6, 3,4-dihydroxybenzoic acid] | > 6
